From paper PMC8728441, “Biosynthesis of the redox cofactor mycofactocin is controlled by the transcriptional regulator MftR and induced by long-chain acyl-CoA species” (The Journal of Biological Chemistry, 2021)
The exact form of at least one protein or probe is not confirmed. For part of these data: The comparison behind a weaker result is the experiment's own reference, which may not be listed here. Protein sequences can lack the tags named with them. For part of these data: At least one verdict was read from the data and is not stated in words by the source.

Key:
[1] = molecular target: T1, MftR WT (Mycobacterium smegmatis mc2155) (UniProt A0QSB5); assay: EMSA; settings: EMSA: 50 mM Hepes, 50 mM NaCl, 0.1 mM EDTA, pH 7.5, room temperature 10 min, 5% PAGE in 1x TBE on ice, recombinant protein, protein details: His-tag (pET-28a, NdeI/XhoI), label: 6-FAM
T1 sequence (looked up, limits assumed): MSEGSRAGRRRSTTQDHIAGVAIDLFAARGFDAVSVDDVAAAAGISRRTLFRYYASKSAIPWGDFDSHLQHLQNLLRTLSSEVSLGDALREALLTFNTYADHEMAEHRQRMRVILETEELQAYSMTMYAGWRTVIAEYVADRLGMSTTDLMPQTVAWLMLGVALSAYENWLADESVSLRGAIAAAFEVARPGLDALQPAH

[2] = molecular target: T1, MftR WT (Mycobacterium smegmatis mc2155); assay: competition with a labelled probe; settings: 4 uM cold probe, 2 uM MftR, 20 nM FAM-Omft; EMSA: 50 mM Hepes, 50 mM NaCl, 0.1 mM EDTA, pH 7.5, room temperature 10 min, 5% PAGE in 1x TBE on ice; recombinant protein; protein details: His-tag (pET-28a, NdeI/XhoI)

TCCATTCTGGCACTCGATGCCATATAT (double strand) [FAM-Omft]
binding result ([1]; 100 uM myristoyl-CoA): binds more weakly
binding result ([1]; 100 uM oleoyl-CoA): binds more weakly

TCCATTCTGGCACTCGATGCCATATAT (double strand) [cold Omft]
binding result [2]: binds
